Source: PubChem BioAssay AID743454 (Peter MacCallum Cancer Centre, 2014)
Test: 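Search for knock-downs that restore vorinostat killing in resistant colon cancer cells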 (primary screen). Cell system: human HCT116-VR colon cancer cells, selected for vorinostat resistance. Reagents: siRNA pool against human genes, 40 nM siRNA pool. Timing: vorinostat for 24 h, read-out about 72 h after transfection. Challenge: vorinostat at 2.5 µM final. Measurement: 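Two measures, CellTiter-Fluor viability and luminescent caspase 3/7 activity, each as fold change against same-plate mock wells, mean of duplicates, then screen-wide robust z-score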. Direction: viability robust z-score: higher = more viable cells than screen typical; caspase robust z-score: higher = more caspase 3/7 activity than screen typical. Rule for the call: 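a knock-down is a hit when classed RV1 or RV2 for lowered viability, or CA1 or CA2 for caspase activation; those lethal without drug were dropped; hits were retested singly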.
The deposit covers about 18,000 reagents; below is a random part of them. 450 of them (2.5%) count as active. 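Single biological run; no consistent viability z cut-off exists, so the class columns, not z-scores, define the calls.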 Entries without a mark were called inactive.

Gene | viability hit class | caspase hit class | viability robust z-score | caspase robust z-score
CFAP210 (cilia and flagella associated protein 210) | no change | no change | 0.4 | 0.3
DHX34 (DExH-box helicase 34) | no change | no change | 0.82 | -0.03
C18orf54 (chromosome 18 open reading frame 54) | no change | no change | 0.58 | -0.83
IL10RB (interleukin 10 receptor subunit beta) | no change | no change | 0.1 | -0.16
PLAC4 (placenta associated 4) | no change | no change | 0.82 | 0.28
KIF9 (kinesin family member 9) | no change | no change | 0.23 | -0.43
DUSP6 (dual specificity phosphatase 6) | no change | no change | -0.18 | -0.52
GTF2IRD2 (GTF2I repeat domain containing 2) | no change | no change | -0.06 | 0.31
SLC4A7 | no change | no change | -1.12 | -1.29
DUS4L (dihydrouridine synthase 4 like) | no change | no change | 1.38 | -1.02
ZNF367 (zinc finger protein 367) | no change | no change | -0.32 | -0.41
CFAP107 (cilia and flagella associated protein 107) | no change | no change | -0.88 | -0.96
CTSL (cathepsin L) | no change | no change | -0.62 | -0.44
RABGAP1L (RAB GTPase activating protein 1 like) | no change | no change | -1.88 | 3.7
SIRPG (signal regulatory protein gamma) | no change | no change | 1.34 | 0.44
ATP5MF (ATP synthase membrane subunit f) | no change | no change | -0.48 | -1.04
EPHA7 (EPH receptor A7) | no change | no change | -0.72 | -0.09
MZT2A (mitotic spindle organizing protein 2A) | no change | no change | -0.4 | 1.15
MECP2 (methyl-CpG binding protein 2) | no change | no change | 0.04 | 0.21
RSRC1 (arginine and serine rich coiled-coil 1) | no change | no change | -0.22 | -0.86
HNRNPF (heterogeneous nuclear ribonucleoprotein F) | no change | no change | -0.22 | -0.25
UBFD1 (ubiquitin family domain containing 1) | no change | no change | -0.3 | -0.12
FAXC | no change | no change | -1.23 | -0.44
TOP3A (DNA topoisomerase III alpha) | no change | no change | -0.36 | 1.36
OR9G1 (olfactory receptor family 9 subfamily G member 1) | no change | no change | 0.78 | -1.26
RPAP2 (RNA polymerase II associated protein 2) | RV2 (reduced viability) (active) | CA2 (caspase activation) | -3.15 | 5.52
AP3D1 (adaptor related protein complex 3 subunit delta 1) | no change | no change | -0.17 | 0.71
P2RY12 (purinergic receptor P2Y12) | RV2 (reduced viability) (active) | CA2 (caspase activation) | -4.65 | 5.31
SPANXN4 (SPANX family member N4) | no change | no change | -0.92 | 1.77
RTN4R (reticulon 4 receptor) | no change | no change | -0.41 | 1.19
MBD6 (methyl-CpG binding domain protein 6) | no change | no change | 0.13 | -0.8
PGA3 (pepsinogen A3) | no change | no change | -0.23 | -0.33
PPP1R3A (protein phosphatase 1 regulatory subunit 3A) | no change | no change | 0.78 | -0.58
GNAI3 (G protein subunit alpha i3) | no change | no change | 0.89 | 0.77
GJD3 (gap junction protein delta 3) | no change | no change | 0.3 | -0.59
OSBPL5 (oxysterol binding protein like 5) | no change | no change | 0.62 | -0.63
UIMC1 (ubiquitin interaction motif containing 1) | no change | no change | 0.82 | -0.11
ANKRD13D (ankyrin repeat domain 13D) | no change | no change | 0.15 | 0.46
KRABD3 (KRAB domain containing 3) | no change | no change | -0.77 | 0.32
ZAN (zonadhesin) | no change | no change | 1.05 | -0.08
SQOR (sulfide quinone oxidoreductase) | no change | no change | 0.9 | -0.26
IL4 (interleukin 4) | no change | no change | -0.87 | 3.57
ZBP1 (Z-DNA binding protein 1) | no change | no change | -1.25 | 0.18
CWC27 (CWC27 spliceosome associated cyclophilin) | no change | no change | -0.55 | 0.6
ATF6B (activating transcription factor 6 beta) | no change | no change | -0.84 | 0.83
PNMA5 (PNMA family member 5) | no change | no change | -0.01 | 0.52
ZNF233 (zinc finger protein 233) | no change | no change | -0.01 | -1.33
CFL2 (cofilin 2) | no change | no change | -0.34 | 0.18
RNF123 (ring finger protein 123) | no change | no change | -0.07 | 0.74
SERPINH1 (serpin family H member 1) | no change | no change | 1.25 | 0.28
TMPRSS13 (transmembrane serine protease 13) | no change | no change | -0.3 | -0.72
OR6F1 (olfactory receptor family 6 subfamily F member 1) | no change | no change | 0.17 | 1.64
PRSS50 (serine protease 50) | no change | no change | -0.66 | 1.29
UBQLN2 (ubiquilin 2) | no change | no change | -0.91 | 2.88
PKIG (cAMP-dependent protein kinase inhibitor gamma) | no change | no change | -0.99 | 1.36
DGAT2L6 (diacylglycerol O-acyltransferase 2 like 6) | no change | no change | 0.08 | -1.06
FAM227B (family with sequence similarity 227 member B) | no change | no change | 0.44 | -0.45

As entered above.
Value of SIRPG (signal regulatory protein gamma) under “caspase hit class”: no change
SQOR (sulfide quinone oxidoreductase), viability hit class = no change
For “viability robust z-score”, RNF123 (ring finger protein 123) reads -0.07
Under “viability hit class”, ZNF233 (zinc finger protein 233) shows no change
Under “viability hit class”, SPANXN4 (SPANX family member N4) shows no change
